Measurements published in publication doi:10.1101/2022.03.21.484600.
Results are given in words; binding and its absence hold for the method and conditions named. Some entries that bind do so weakly or less than the wild type. For some assays here: Tags and fused reporters may be left off the sequences shown.

How the values were obtained:
[1] = molecular target: GFP-tagged wild-type Cdc19 expressed in yeast (S. cerevisiae) (UniProt P00549); test: semi-denaturing detergent agarose gel electrophoresis
[2] = molecular target: Cdc19 amyloid core peptide, wild type (amino acids 376-392) (S. cerevisiae); test: fibril formation seen by negative staining TEM

B1: GFP-tagged wild-type Cdc19 expressed in yeast (enzyme, UniProt P00549 1-500)
chain: MSRLERLTSLNVVAGSDLRRTSIIGTIGPKTNNPETLVALRKAGLNIVRMNFSHGSYEYHKSVIDNARKSEELYPGRPLAIALDTKGPEIRTGTTTNDVDYPIPPNHEMIFTTDDKYAKACDDKIMYVDYKNITKVISAGRIIYVDDGVLSFQVLEVVDDKTLKVKALNAGKICSHKGVNLPGTDVDLPALSEKDKEDLRFGVKNGVHMVFASFIRTANDVLTIREVLGEQGKDVKIIVKIENQQGVNNFDEILKVTDGVMVARGDLGIEIPAPEVLAVQKKLIAKSNLAGKPVICATQMLESMTYNPRPTRAEVSDVGNAILDGADCVMLSGETAKGNYPINAVTTMAETAVIAEQAIAYLPNYDDMRNCTPKPTSTTETVAASAVAAVFEQKAKAIIVLSTSGTTPRLVSKYRPNCPIILVTRCPRAARFSHLYRGVFPFVFEKEPVSDWTDDVEARINFGIEKAKEFGILKKGDTYVSIQGFKAGAGHSNTLQVSTV
- binding [1]: binds

Binder: TSTTETVAASAVAAVFE [Cdc19 amyloid core peptide, wild type (amino acids 376-392)]
- binding [2]: no binding (condition: at pH 7.4)
